These are yes or no findings as the source states them, for the method shown. Binding can be weak; no strength is given.
Molecular target: T1, Atg3^FR (residues 86–159), the intrinsically disordered flexible region of yeast Atg3 (S. cerevisiae) (UniProt P40344)
T1 sequence: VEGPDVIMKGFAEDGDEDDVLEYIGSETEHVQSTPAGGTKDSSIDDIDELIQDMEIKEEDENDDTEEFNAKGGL
Experiment: NMR titration; 0.1 mM 15N-labeled Atg3^FR 86–159 (or its mutant) titrated with 0–500 or 0–625 µM unlabeled Atg3^∆FR; [15N,1H] TROSY; 25 °C, 20 mM MES pH 6.5, 100 mM NaCl, 10% D2O; both purified

Atg3^∆FR (yeast Atg3 lacking the flexible region) (from UniProt P40344) (enzyme)
binding: binds
